# According to PubChem BioAssay AID504941 (Broad Institute, 2011):
# The campaign covered roughly 1,200 compounds. About 170 (14%) were called active. Listed are the inconclusive results; actives and inactives stand elsewhere. How the calls were made is not given here.
# Assay: twin-arginine translocation blockade, bacterial reporter – cherry-pick, set 2, plate reader, dose response (AID 504941)
# Conditions: E. coli Tat transport reporter; at 38 µM (top of the series)
row,SMILES,"activity change, negative = inhibition"
1,O=C(CCNc1n[nH]c(=O)[nH]c1=O)N1CCCCC1,inconclusive: -25.9%
2,Cc1cc(C)c(S(=O)(=O)N2CCN(C(=O)CN3C(=O)NC4(CCCC4)C3=O)CC2)c(C)c1,inconclusive: -17.6%
